Assay results taken from article PMC8500965.
These are yes or no findings as the source states them, for the method shown. In cells and extracts the contact can be indirect. Some binding calls cover weakened binding; strength is not graded here.

Protein sequences, listed by entry. Tags and fused reporters are not part of them.
UniProt O88597: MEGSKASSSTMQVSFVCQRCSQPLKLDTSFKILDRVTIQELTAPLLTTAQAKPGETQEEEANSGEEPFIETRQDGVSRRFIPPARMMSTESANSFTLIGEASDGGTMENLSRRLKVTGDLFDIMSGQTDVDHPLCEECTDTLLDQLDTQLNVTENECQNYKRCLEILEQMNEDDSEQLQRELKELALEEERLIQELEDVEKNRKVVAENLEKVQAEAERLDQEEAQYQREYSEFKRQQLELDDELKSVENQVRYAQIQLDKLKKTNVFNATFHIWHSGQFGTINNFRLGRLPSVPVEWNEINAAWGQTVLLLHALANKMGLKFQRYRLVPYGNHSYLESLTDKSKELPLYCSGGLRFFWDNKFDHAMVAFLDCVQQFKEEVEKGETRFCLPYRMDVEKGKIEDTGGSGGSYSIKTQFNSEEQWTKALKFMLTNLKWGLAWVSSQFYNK
UniProt Q9Z0Z3: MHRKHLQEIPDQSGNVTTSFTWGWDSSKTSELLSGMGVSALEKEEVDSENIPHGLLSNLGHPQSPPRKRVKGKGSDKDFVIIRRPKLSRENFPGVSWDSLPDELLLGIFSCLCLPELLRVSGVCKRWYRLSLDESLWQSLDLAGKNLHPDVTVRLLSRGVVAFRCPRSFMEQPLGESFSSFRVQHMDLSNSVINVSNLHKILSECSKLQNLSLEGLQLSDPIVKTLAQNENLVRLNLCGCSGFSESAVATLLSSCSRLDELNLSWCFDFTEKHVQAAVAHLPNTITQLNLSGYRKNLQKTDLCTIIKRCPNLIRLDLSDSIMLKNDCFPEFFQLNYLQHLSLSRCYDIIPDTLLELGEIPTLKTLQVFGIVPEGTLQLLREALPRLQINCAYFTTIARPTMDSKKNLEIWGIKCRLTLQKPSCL

Molecular target: Beclin1 (mouse (endogenous in MH-S)) (UniProt O88597)
Assay: co-IP; myc-SKP2 overexpressed in MH-S cells; RIPA lysate pre-cleared with Protein A + G Agarose; IP with Beclin1 antibody or isotype-matched IgG at 4°C overnight; Western blot for Beclin1 and myc-SKP2

## myc-SKP2 (S-phase kinase-associated protein 2) (from UniProt Q9Z0Z3 1-424)
  binding: binds
